Assay results reported in publication PMC5675994.
These are yes or no findings as the source states them, for the method shown. Binding seen in cells or lysates may run through a third protein. Here binding means that the protein was enriched with, or labelled near, the bait; the list need not be complete. For some assays here: Where a sequence is shown, tags or fusion partners need not be part of it.

By UniProt entry, the sequences of proteins in these tests, tags left out. Where a name states a change or a piece, a line headed by the entry shows the natural chain unless it says otherwise.
UniProt Q07540: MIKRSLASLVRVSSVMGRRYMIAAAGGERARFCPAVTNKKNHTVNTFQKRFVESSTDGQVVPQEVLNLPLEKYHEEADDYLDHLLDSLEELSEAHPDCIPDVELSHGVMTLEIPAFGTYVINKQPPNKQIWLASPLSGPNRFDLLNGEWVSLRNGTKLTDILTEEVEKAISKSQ

Experiments:
[1] = target: Yfh1-His6 (S. cerevisiae) (UniProt Q07540); test: affinity purification with mass spectrometry; Yfh1-His6 held on Ni-NTA superflow agarose from French-press lysate (108,000xg supernatant) of isolated mitochondria of the Yfh1-His6 yeast strain; 50 mM TrisCl pH 7.5, 80 mM KCl, 10% glycerol, wash 40 mM imidazole with 0.1% Triton X-100, elution 400 mM imidazole; eluate analysed by LC-MS/MS
[2] = target: T1, Nfs1-His6 (S. cerevisiae) (UniProt P25374); test: affinity purification with mass spectrometry; Nfs1-His6 held on Ni-NTA superflow agarose from sonicated, cleared lysate of isolated mitochondria of the Gal-Nfs1-His6 yeast strain; 50 mM TrisCl pH 7.5, 80 mM KCl, 10% glycerol, wash 40 mM imidazole, elution 400 mM imidazole; eluate analysed by LC-MS/MS
T1 sequence: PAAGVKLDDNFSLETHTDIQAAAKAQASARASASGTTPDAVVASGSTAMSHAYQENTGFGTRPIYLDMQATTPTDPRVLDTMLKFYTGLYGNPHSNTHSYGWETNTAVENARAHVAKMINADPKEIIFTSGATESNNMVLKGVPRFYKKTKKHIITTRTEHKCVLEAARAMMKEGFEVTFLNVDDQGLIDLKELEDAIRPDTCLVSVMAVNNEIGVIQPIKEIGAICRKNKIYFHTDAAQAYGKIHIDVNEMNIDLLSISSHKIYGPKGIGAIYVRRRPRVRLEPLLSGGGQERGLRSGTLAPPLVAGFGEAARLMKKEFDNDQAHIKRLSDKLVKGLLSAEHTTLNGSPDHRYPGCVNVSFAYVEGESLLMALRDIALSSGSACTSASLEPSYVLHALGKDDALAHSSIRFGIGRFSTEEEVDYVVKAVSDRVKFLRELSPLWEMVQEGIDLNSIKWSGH

B1: Myosin tail region-interacting protein MTI1 (protein, UniProt P47068 1-1157)
chain: MSEPEVPFKVVAQFPYKSDYEDDLNFEKDQEIIVTSVEDAEWYFGEYQDSNGDVIEGIFPKSFVAVQGSEVGKEAESSPNTGSTEQRTIQPEVEQKDLPEPISPETKKETLSGPVPVPAATVPVPAATVPVPAATAVSAQVQHDSSSGNGERKVPMDSPKLKARLSMFNQDITEQVPLPKSTHLDLENIPVKKTIVADAPKYYVPPGIPTNDTSNLERKKSLKENEKKIVPEPINRAQVESGRIETENDQLKKDLPQMSLKERIALLQEQQRLQAAREEELLRKKAKLEQEHERSAVNKNEPYTETEEAEENEKTEPKPEFTPETEHNEEPQMELLAHKEITKTSREADEGTNDIEKEQFLDEYTKENQKVEESQADEARGENVAEESEIGYGHEDREGDNDEEKEEEDSEENRRAALRERMAKLSGASRFGAPVGFNPFGMASGVGNKPSEEPKKKQHKEKEEEEPEQLQELPRAIPVMPFVDPSSNPFFRKSNLSEKNQPTETKTLDPHATTEHEQKQEHGTHAYHNLAAVDNAHPEYSDHDSDEDTDDHEFEDANDGLRKHSMVEQAFQIGNNESENVNSGEKIYPQEPPISHRTAEVSHDIENSSQNTTGNVLPVSSPQTRVARNGSINSLTKSISGENRRKSINEYHDTVSTNSSALTETAQDISMAAPAAPVLSKVSHPEDKVPPHPVPSAPSAPPVPSAPSVPSAPPVPPAPPALSAPSVPPVPPVPPVSSAPPALSAPSIPPVPPTPPAPPAPPAPLALPKHNEVEEHVKSSAPLPPVSEEYHPMPNTAPPLPRAPPVPPATFEFDSEPTATHSHTAPSPPPHQNVTASTPSMMSTQQRVPTSVLSGAEKESRTLPPHVPSLTNRPVDSFHESDTTPKVASIRRSTTHDVGEISNNVKIEFNAQERWWINKSAPPAISNLKLNFLMEIDDHFISKRLHQKWVVRDFYFLFENYSQLRFSLTFNSTSPEKTVTTLQERFPSPVETQSARILDEYAQRFNAKVVEKSHSLINSHIGAKNFVSQIVSEFKDEVIQPIGARTFGATILSYKPEEGIEQLMKSLQKIKPGDILVIRKAKFEAHKKIGKNEIINVGMDSAAPYSSVVTDYDFTKNKFRVIENHEGKIIQNSYKLSHMKSGKLKVFRIVARGYVGW
B1 was tested, and the binding [1] was “binds” and the binding [2] was “binds”.

B2: Acetolactate synthase catalytic subunit, mitochondrial (protein, UniProt P07342 91-687)
chain: GLTGGQIFNEMMSRQNVDTVFGYPGGAILPVYDAIHNSDKFNFVLPKHEQGAGHMAEGYARASGKPGVVLVTSGPGATNVVTPMADAFADGIPMVVFTGQVPTSAIGTDAFQEADVVGISRSCTKWNVMVKSVEELPLRINEAFEIATSGRPGPVLVDLPKDVTAAILRNPIPTKTTLPSNALNQLTSRAQDEFVMQSINKAADLINLAKKPVLYVGAGILNHADGPRLLKELSDRAQIPVTTTLQGLGSFDQEDPKSLDMLGMHGCATANLAVQNADLIIAVGARFDDRVTGNISKFAPEARRAAAEGRGGIIHFEVSPKNINKVVQTQIAVEGDATTNLGKMMSKIFPVKERSEWFAQINKWKKEYPYAYMEETPGSKIKPQTVIKKLSKVANDTGRHVIVTTGVGQHQMWAAQHWTWRNPHTFITSGGLGTMGYGLPAAIGAQVAKPESLVIDIDGDASFNMTLTELSSAVQAGTPVKILILNNEEQGMVTQWQSLFYEHRYSHTHQLNPDFIKLAEAMGLKGLRVKKQEELDAKLKEFVSTKGPVLLEVEVDKKVPVLPMVAGGSGLDEFINFDPEVERQQTELRHKRTGGKH
In the case of B2, the binding [1] is reported as “binds” and the binding [2] is reported as “binds”.

B3: Dihydrofolate synthetase (protein, UniProt Q12676 1-427)
chain: MAIELGLSRITKLLEHLGNPQNSLRVLHIAGTNGKGSVCTYLSSVLQQKSYQIGKFTTPHLVHVTDSITINNKPIPLERYQNIRLQLEALNKSHSLKCTEFELLTCTAFKYFYDVQCQWCVIEVGLGGRLDATNVIPGANKACCGITKISLDHESFLGNTLSEISKEKAGIITEGVPFTVIDGTNEASVINVVKERCKALGSELSVTDSQLNGNMIDTNSWGCFDLAKLPLNGEYQIFNLRVAMGMLDYLQMNELIDITKNEVSTRLAKVDWPGRLYRMDYRFDKVSNRTVPILMDGAHNGSAAVELVKYLRKEYGNQPLTFVMAVTHGKNLEPLLQPLLRPIDQVILTRFNNVEGMPWIHATDPEEIKDFILTQGYTKEIVIENDLHQVLPSLAHVSDEQRRPIVVCGSLYLCGELLRIHNSHLRN
B3 was tested, and the binding [1] was “binds” and the binding [2] was “binds”.

B4: Protein ISD11 (protein, UniProt Q6Q560 1-94)
chain: MPGFTAPTRRQVLSLYKEFIKNANQFNNYNFREYFLSKTRTTFRKNMNQQDPKVLMNLFKEAKNDLGVLKRQSVISQMYTFDRLVVEPLQGRKH
For B4, the binding [1] was “binds” and the binding [2] was “binds”.
